Laboratory results taken from PubChem BioAssay AID493014 (National Center for Advancing Translational Sciences (NCATS), 2011).
“And” between values parts separate entries of the source, which are not always exact repeats. Equal entries are not always repeated. The list shows a part of the results. The main result of the screen is listed elsewhere. These columns were measured beside it and carry no call. Compounds called inactive in the main read-out are mostly missing here. Words in brackets tell the shape of the fitted curve; partial curves, single points and poor fits give uncertain potencies.

Experiment: qHTS Assay to Find Inhibitors of Chronic Active B-Cell Receptor Signaling
Settings: ABC-DLBCL IkBa-CBG/CBR reporter, luminescence ratio (green luciferase fused to IkBa over red control in TMD8 lymphoma cells), 4 h
In short: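 Cell line TMD8 (human ABC DLBCL), stably expressing tet-inducible CBG68-IkBa fusion and CBR; IMDM/0.5% FBS; cpd up to 46 uM; dox induction, 4 h, 37C/5% CO2; dual luminescence; green/red ratio; MG132 control.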

[1] = measured here: CBR red luminescence, cell number
[2] = measured here: IkBa-CBG green luminescence

Structure (SMILES)	AC50 [1]	AC50 [2]
COC(=O)C1=C(c2ccc(F)cc2OCc2ccccc2)C[C@@H]2CC[C@H]1N2C(=O)NCc1ccc(OC)c(OC)c1	29.1 µM [falling, single point]	–
COC(=O)C1=C(c2cccc(OCc3ccccc3)c2)C[C@@H]2CC[C@H]1N2C(=O)NCc1ccc2[nH]ccc2c1	29.1 µM [falling, single point]	–
CC(N)Cc1cn(Cc2ccccc2)c2ccccc12 (stereo unspecified)	35.5 µM [falling, single point]	–
COc1ccc(CNc2oc(-c3cccc4ccccc34)nc2P(=O)(OC)OC)cc1	35.5 µM [falling, single point]	–
O=C(O)c1cccc2c1NC(c1cccc([N+](=O)[O-])c1)C1CC(Sc3ccccc3[N+](=O)[O-])C(Cl)C21 (stereo unspecified)	35.5 µM [rising, single point]	–
CCc1ccc2c(CN3CC=C(c4ccccc4)CC3)cc(=O)oc2c1	3.66 µM [rising, single point]	–
O=C(O)c1nonc1-c1nonc1C(=O)O	4.61 µM [rising, full curve, poor fit]	–
Cc1cccc2sc(NC(=O)c3cccn(Cc4ccccc4)c3=O)nc12	20 µM [falling, partial curve, poor fit]	–
O=C(Cn1ncc2c3ccccc3n(Cc3ccc(F)cc3)c2c1=O)N1CCC2(CC1)OCCO2	4.11 µM [falling, partial curve, poor fit]	5.8 µM [rising, partial curve, poor fit]
Cn1nc(OC(=O)Nc2ccc(Cl)cc2)cc1C(F)(F)F	0.58 µM [rising, full curve, poor fit]	–
CC1(C)C(C(=O)N2CCN(c3ccc(Cl)cc3)CC2)C1(C)C	1.78 µM [rising, full curve, poor fit]	–
CCC(=Nc1ccc(OC)cc1OC)c1c(O)[nH]c(=O)[nH]c1=O	3.98 µM [falling, single point]	15.8 µM [falling, partial curve, poor fit]
CC(=O)O[C@@H]1[C@H]2[C@@H](C[C@@H](C)[C@@H]3C=CC(=O)[C@@]13C)OC(=O)[C@@H]2C	7.94 µM [falling, partial curve, poor fit]	–
COc1cc2c3cc1Oc1cc(ccc1O)C[C@@H]1c4c(cc(OC)c(O)c4Oc4ccc(cc4)C[C@H]3N(C)CC2)CCN1C	–	13 µM [falling, partial curve]
NNC(=O)c1ccc(Cl)cc1	9.2 µM [falling, partial curve]	–
Fc1ccccc1CCNCc1cccc2ccccc12	11.6 µM [rising, partial curve, poor fit]	–
C#C[C@@]1(O)CCC2C3CCC4=C/C(=N/OCC(=O)NC(C(=O)O)C(C)O)CC[C@]4(C)C3CC[C@@]21C (stereo partly specified)	31.6 µM [rising, single point]	–
COc1ccc(-c2cc(=Nc3ccccc3)c3cc(C)ccc3o2)cc1	2.59 µM [rising, full curve]	–
O=c1[nH]c(=S)n(Cc2ccc(F)cc2)c(O)c1C=NCc1cccnc1	2.31 µM [falling, single point]	–

Structure (SMILES)	AC50 [1]	AC50 [2]
CCN1CCN(c2cc(=O)n3ccccc3n2)CC1	17.8 µM [rising, partial curve, poor fit]	–
Cc1cc(NC(=O)c2cccn(Cc3ccccc3)c2=O)no1	35.5 µM [falling, single point]	–
CCCc1[nH]nc2c1C1(C(=O)N(Cc3ccccc3)c3ccccc31)C(C(=O)OC)=C(N)O2 (stereo unspecified)	20.6 µM [falling, single point]	–
Cc1cc(NC(=O)CSc2c3c(nc4ccccc24)CCC3)no1	11.2 µM [falling, partial curve]	–
Cc1ccc2c(c1)[C@@H]1CN(C)CC[C@@H]1N2C(=O)Nc1cccc(C(F)(F)F)c1	29.1 µM [falling, single point]	–
CC(=O)C1C2c3ccccc3O[C@@]1(C)N=c1s/c(=C/c3ccoc3)c(=O)n12 (stereo partly specified)	29.1 µM [falling, single point]	–
OC(Cn1c2ccccc2c2ccccc21)C[n+]1cccc2ccccc21 (stereo unspecified)	35.5 µM [falling, single point]	–
CN1CC(C(=O)c2ccc([N+](=O)[O-])cc2)C(c2ccc(Cl)cc2)C1 (stereo unspecified)	6.31 µM [rising, partial curve, poor fit]	–
COC(=O)c1ccc(CC(C(=O)c2ccccc2)N(C)C)cc1 (stereo unspecified)	14.1 µM [rising, partial curve, poor fit]	–
Cc1ccc(N(Cc2cc(=O)[nH]c3ccccc23)C(=O)CCl)c(C)c1	35.5 µM [falling, single point]	–
O=[N+]([O-])c1cnc2ccc3ccccc3c2c1	11.2 µM [falling, single point]	–
CC(C)(C)n1cccc1/C=C1\C(=O)NC(=O)N(c2ccccc2)C1=O	23.1 µM [rising, partial curve, poor fit]	–
CC(=NCCCN1CCOCC1)c1c(O)n(-c2ccccc2C)c(=O)[nH]c1=O	23.1 µM [rising, single point]	–
C[C@H]1CCC/C=C/[C@@H]2C[C@H](O)C[C@H]2[C@H](O)/C=C/C(=O)O1	231 nM [falling, full curve] and 580 nM [falling, full curve]	–
CC(C)C12CN3CCN(CC(C3)/C1=N\O)C2	18.4 µM [rising, partial curve, poor fit]	–
CC1(C)C[C@H]2C=C(C=O)[C@]3(C=O)C[C@]3(C)[C@H]2C1	4.61 µM [falling, full curve]	5.8 µM [rising, full curve]
Cc1ccc(C(=O)Nc2ccc3ncccc3c2)cc1	14.1 µM [falling, single point]	–
O=C(NCCN1CCN(c2ccccc2)CC1)Nc1ccc(Cl)cc1	14.1 µM [rising, partial curve, poor fit]	–
CCOc1cc(C2C(C#N)=C(N)Oc3c2c(=O)oc2ccccc32)ccc1OC(=O)c1cccs1 (stereo unspecified)	20.6 µM [falling, partial curve]	–

3 compounds out of the list, arranged by number of heavy atoms, smallest number first.
Structure (SMILES)	AC50 [1]	AC50 [2]
NNC(=O)c1ccc(Cl)cc1	9.2 µM [falling, partial curve]	–
CC(=O)O[C@@H]1[C@H]2[C@@H](C[C@@H](C)[C@@H]3C=CC(=O)[C@@]13C)OC(=O)[C@@H]2C	7.94 µM [falling, partial curve, poor fit]	–
CC(C)(C)n1cccc1/C=C1\C(=O)NC(=O)N(c2ccccc2)C1=O	23.1 µM [rising, partial curve, poor fit]	–
